In experiment [1] the target is T1, Aubergine (Aub), endogenous (Drosophila melanogaster (endogenous in ovaries)) (UniProt O76922).
T1 sequence: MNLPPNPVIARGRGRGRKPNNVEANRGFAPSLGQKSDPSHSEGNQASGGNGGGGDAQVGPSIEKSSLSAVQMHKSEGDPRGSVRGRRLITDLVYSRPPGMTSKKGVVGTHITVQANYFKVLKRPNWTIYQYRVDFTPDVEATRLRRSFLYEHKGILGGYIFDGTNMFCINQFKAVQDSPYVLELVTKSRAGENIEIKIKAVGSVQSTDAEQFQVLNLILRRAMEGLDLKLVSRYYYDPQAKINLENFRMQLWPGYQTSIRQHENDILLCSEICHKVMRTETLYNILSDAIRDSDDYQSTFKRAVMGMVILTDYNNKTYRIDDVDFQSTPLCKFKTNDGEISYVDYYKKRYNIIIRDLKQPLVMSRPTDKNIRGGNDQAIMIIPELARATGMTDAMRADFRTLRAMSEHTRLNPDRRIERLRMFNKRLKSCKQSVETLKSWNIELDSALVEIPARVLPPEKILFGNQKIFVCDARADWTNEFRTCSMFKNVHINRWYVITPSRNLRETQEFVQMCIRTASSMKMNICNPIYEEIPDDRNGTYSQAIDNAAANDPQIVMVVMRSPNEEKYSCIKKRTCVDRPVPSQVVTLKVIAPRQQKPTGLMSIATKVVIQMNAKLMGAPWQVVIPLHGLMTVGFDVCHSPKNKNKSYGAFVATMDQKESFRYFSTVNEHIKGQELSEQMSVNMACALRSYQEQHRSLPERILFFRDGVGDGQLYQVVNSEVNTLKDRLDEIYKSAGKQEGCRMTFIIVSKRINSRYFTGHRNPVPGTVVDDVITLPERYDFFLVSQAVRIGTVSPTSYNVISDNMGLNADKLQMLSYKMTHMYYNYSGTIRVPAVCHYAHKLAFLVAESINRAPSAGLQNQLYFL
The experiment is described as follows: co-IP.

In experiment [2] the target is T1, Aubergine (Aub), endogenous (Drosophila melanogaster (endogenous in ovaries)). The experiment is described as follows: co-IP. The source holds these as a separate data set.

Where two headings read alike, the source gives them in different places. Results are given in words; binding and its absence hold for the method and conditions named. Binding seen in cells or lysates may run through a third protein. Some binding calls cover weakened binding; strength is not graded here.

B1: Spindle-E (Spn-E), endogenous (protein, UniProt Q9VF26 1-1434)
chain: MDQEVMDFFDFSKELKRVAAAPQGYISSDPRLMATKFKSSEVPNRELIGTDYVSKIVAKEKCLLNGTLLNEQPQGKRIRTLDDLDTDDEGEETEIRRDDEYYKKFRFNLNRDKNLSIYAKREEILAAINAHPVVIIKGETGCGKTTQVPQYILDEAYKSGKYCNIVVTQPRRIAAISIANRVCQEREWQQNTVCSFQVGLHRPNSLEDTRLLYCTTGVLLNNLINNKTLTHYTHIVLDEVHERDQNMDFLLIVVRRLLATNSRHVKIILMSATIDAKELSDYFTTTNSIPPVITTNHRRKHSIEKFYRDQLGSIIWNEEDVGHQQVPEINKHGYRAAVKIIVIIDNMERKAAIQSRQSYDEALRYGAVLIFLPGIYEIDTMAENLTCMLENDPNIKVSIVRCFSLMTPENQRDVFNPPPPGFRKIILTTNIAESSITVPDVSYVIDFCLAKVKVTDTASSFSSLRLTWASKANCRQRAGRVGRLRSGRVYRMVNKHFYQREMPEFGIPEMLRLPLQNSVLKAKVLNMGSPVEILALALSPPNLSDIHNTILLLKEVGALYLTVDGIYDPLDGDLTYWGTIMSRLPLDTRQSRLIILGYIFNMLEEAIIIAAGLSTPGLFAHEGGRSQLGDSFWMHYIFSDGSGSDLVAIWRVYLTYLNIVENGHDQESAIRWAKRFHVSLRSLKEIHLLVQELRVRCTHLGLIPFPVNPNQMMDDREKAIMLKVIIAGAFYPNYFTRSKESCADTDRNIYQTISGHDPCRTVYFTNFKPAYMGELYTRRIKELFQEVRIPPENMDVTFQEGSQKVFVTFKQDDWIEGSSKYVPVSGRVQSEVYKAVMMRQNRVERPIHIMNPSAFMSYVQQRGIGDVIEGRWIPPTKPLNVELLALPSVFDKTISGSITCIVNCGKFFFQPQSFEECIRNMSEIFNAPQQLRNYVTNASAIAKGMMVLAKRDSYFQRATVIRPENQSNRQPMFYVRFIDYGNCTLLPMQLMRLMPRELTEQYGDLPPRVFECRLAMVQPSSVVSGNNRWSTAANDMLKTVAQCGLIDIEVYSLFNNVAAVLIHMRDGIINDKLVELMLCRRSDEDYMSRKDHDFRLRRQESARNLSTAQRQQINEEYLRSCQLPQDHDLPPPPLEKCKTVVMLKGPNSPLECTMRSITRVGLSKRVNIDHLSVNALLLDADPQDHHDHLIVAHEIAESRNGQTLTARGTTLMPNVQGFGALMVMLFSPTMQLKCNKEGTSYVSVLGGLGCDPDTNEPYFAEHDVLINLDVNILEDDVILINQIRYYIDSVFFNFKEENNPAVSVNERVSIYTQLRSLINRLLCKDRRYIERNMSNADFEWETNPELPLPNEPFGKRAIFPMHSLTELQEEDTGRLVQLRENCSMLHKWRNFEGTLPHMTCKLCNQLLESVPQLRLHLLTILHRDREKQIDYCNQ
In the case of B1, the results for the binding entry in experiment [1] and in experiment [2] were “binds weakly” and “binds”, respectively.

Values taken from article doi:10.64898/2025.12.12.693873.
